At least one read-out could not be matched to a standard name with certainty.
Target: T1, murine Granzyme B (Mus musculus, UniProt P04187)
T1 construct: purchased Peprotech
T1 sequence (P04187 21-247): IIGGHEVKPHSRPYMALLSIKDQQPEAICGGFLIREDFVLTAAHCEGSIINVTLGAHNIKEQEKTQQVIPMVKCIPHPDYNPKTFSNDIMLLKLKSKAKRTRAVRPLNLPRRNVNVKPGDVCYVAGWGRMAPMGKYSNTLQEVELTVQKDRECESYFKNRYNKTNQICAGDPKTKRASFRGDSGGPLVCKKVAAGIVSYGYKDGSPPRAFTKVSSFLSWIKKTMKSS
Test: In vitro protease cleavage assay with recombinant GzmB
Type: biochemical
Conditions: GzmB cleavage of substrate on nanoparticle surface, Michaelis-Menten fit
Method: Synthetic biomarkers (6 nM by NP, 300 nM by peptide) were incubated in PBS+1% bovine serum albumin (BSA; Sigma) at 37° C. with murine Granzyme B (0.2 μM, Peprotech), human thrombin (HaemTech), mouse thrombin (HaemTech), mouse plasmin (HaemTech), Clr (Sigma), Cls (Sigma), Factor D (Sigma), Factor I (Sigma), MASP2 (Biomatik). Sample fluorescence were measured for 60 minutes using Cytation 5 plate reader (Biotek). To optimize GzmB substrate, a library of potential substrates was synthesized by Tufts University Core Facility peptide synthesis service and conjugated to IONPs. Cleavage assays of nanoparticles decorated with these substrates with recombinant GzmB were performed, and data was fitted to compare initial cleavage velocities. To determine Michaelis-Menten constants, cleavage assays with GzmB were performed at different substrate concentrations. To initiate coagulation cascade, citrated plasma was mixed with synthetic biomarkers before addition of calcium chloride (15 mM, Sigma). To initiate complement activation, Control Human Serum (Sigma) was mixed with synthetic biomarkers before addition of Heat Aggregated Gamma Globulin (HAGG; Quidel) per the manufacturer's protocol. After measuring fluorescence for 1 hour, supernatants were collected and measured for formation of MAC complex using Micro Vue CH50 Eq EIA Kit (Quidel).

Substance: synthetic biomarkers: PEG-coated iron oxide nanoparticles conjugated with GzmB peptide substrates carrying a fluorescent reporter (AIEFDSGC; D-residues)
- kcat/KM: 10900 M⁻¹ s⁻¹

— patent publication US12692533B2, “Methods and compositions for noninvasive detection of organ transplant rejection” (Georgia Tech Research Corporation, priority 2016, dated 2026)
